Reference: PMC10266255
Results are given in words; binding and its absence hold for the method and conditions named. In cells and extracts the contact can be indirect. Some binding calls cover weakened binding; strength is not graded here. Sequences can lack the tags named with a protein.

Protein sequences, listed by entry. Tags and fused reporters are not part of them.
UniProt O60566: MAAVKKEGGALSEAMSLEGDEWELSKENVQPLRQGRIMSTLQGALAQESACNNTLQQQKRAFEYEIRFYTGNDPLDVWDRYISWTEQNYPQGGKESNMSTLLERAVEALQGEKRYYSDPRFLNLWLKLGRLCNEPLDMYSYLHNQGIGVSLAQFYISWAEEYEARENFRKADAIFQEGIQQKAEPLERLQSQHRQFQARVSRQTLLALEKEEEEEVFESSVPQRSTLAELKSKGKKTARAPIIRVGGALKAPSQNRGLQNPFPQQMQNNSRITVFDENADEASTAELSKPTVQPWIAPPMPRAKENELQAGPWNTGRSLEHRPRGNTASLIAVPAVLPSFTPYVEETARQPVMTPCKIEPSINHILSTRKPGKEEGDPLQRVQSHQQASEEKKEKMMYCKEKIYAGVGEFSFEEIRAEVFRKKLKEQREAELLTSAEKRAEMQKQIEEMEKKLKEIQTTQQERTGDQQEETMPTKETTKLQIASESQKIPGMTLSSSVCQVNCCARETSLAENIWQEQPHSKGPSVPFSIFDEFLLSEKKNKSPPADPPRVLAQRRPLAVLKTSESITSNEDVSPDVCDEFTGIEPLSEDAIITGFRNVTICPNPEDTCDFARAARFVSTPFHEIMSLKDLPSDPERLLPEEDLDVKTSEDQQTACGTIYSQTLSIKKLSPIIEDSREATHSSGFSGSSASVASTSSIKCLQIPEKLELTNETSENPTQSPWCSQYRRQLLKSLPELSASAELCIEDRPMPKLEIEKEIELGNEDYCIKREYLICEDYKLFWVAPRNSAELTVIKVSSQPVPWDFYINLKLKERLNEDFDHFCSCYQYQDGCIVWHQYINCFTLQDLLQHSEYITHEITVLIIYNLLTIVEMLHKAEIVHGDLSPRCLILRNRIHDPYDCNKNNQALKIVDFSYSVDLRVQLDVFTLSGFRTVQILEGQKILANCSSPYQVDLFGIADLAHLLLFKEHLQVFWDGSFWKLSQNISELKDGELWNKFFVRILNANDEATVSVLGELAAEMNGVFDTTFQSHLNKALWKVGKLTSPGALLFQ
UniProt O43684: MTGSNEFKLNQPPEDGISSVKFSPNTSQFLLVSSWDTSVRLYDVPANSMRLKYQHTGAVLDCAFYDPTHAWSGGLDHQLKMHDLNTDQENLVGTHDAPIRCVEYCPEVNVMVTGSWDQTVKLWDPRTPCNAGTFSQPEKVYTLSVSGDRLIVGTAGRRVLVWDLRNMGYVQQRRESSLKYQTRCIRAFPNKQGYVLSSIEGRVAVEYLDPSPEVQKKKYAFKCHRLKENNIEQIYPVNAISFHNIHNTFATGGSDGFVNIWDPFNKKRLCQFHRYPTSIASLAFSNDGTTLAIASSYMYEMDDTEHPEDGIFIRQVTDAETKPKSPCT

Each molecule was assayed against budding uninhibited by benzimidazole-related 1 (BUBR1) (human (endogenous in HCT-116)) (UniProt O60566) (assay: co-IP; BUBR1 antibody, Protein A agarose beads, RIPA lysate of colcemid-challenged HCT-116 cells (with or without exogenous PRAP1) and HCT-116/DDP cells (siNC or siPRAP1); primary antibody at 4 C overnight; western blot).

binding	Molecule
binds	budding uninhibited by benzimidazoles 3 (Bub3) (from UniProt O43684 1-328)
no binding	proline-rich acidic protein 1 (PRAP1) (protein, UniProt Q96NZ9 21-151) VPAPKVPIKMQVKHWPSEQDPEKAWGARVVEPPEKDDQLVVLFPVQKPKLLTTEEKPRGQGRGPILPGTKAWMETEDTLGHVLSPEPDHDSLYHPPPEEDQGEERPRLWVMPNHQVLLGPEEDQDHIYHPQ
no binding	EGFP-PRAP1 (protein, UniProt Q96NZ9 21-151) VPAPKVPIKMQVKHWPSEQDPEKAWGARVVEPPEKDDQLVVLFPVQKPKLLTTEEKPRGQGRGPILPGTKAWMETEDTLGHVLSPEPDHDSLYHPPPEEDQGEERPRLWVMPNHQVLLGPEEDQDHIYHPQ
